# Results from patent publication US20150165000A1, “COMPOSITION FOR THERMOSTABILIZATION OF HUMAN SERUM ALBUMIN AND METHOD OF PREPARING THERMALLY STABILIZED HUMAN SERUM ALBUMIN USING THE SAME” (Ewha University - Industry Collaboration Foundation, priority 2012, published 2015).
# Chains of the proteins cited; added tags and fusions are not shown. Residues count along the entry.
# UniProt P02768, 25-609: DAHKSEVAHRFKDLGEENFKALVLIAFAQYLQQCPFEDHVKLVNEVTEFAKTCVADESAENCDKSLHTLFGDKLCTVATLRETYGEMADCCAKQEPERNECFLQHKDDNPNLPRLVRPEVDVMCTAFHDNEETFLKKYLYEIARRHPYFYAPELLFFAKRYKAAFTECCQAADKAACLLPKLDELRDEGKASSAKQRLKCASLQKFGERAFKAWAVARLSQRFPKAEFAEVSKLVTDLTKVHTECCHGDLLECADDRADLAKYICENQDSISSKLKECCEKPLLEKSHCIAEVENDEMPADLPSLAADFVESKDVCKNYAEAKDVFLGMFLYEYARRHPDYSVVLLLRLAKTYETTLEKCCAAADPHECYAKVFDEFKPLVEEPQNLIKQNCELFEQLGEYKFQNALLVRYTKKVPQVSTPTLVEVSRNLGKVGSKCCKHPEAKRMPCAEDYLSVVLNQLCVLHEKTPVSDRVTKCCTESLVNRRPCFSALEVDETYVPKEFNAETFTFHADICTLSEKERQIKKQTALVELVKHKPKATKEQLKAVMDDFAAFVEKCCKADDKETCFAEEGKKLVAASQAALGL
# At least one compound was matched to its structure with a doubt left.
# Biological target: T1, human serum albumin (Homo sapiens, UniProt P02768)
# T1 construct: the single supply source of human serum albumin is currently the blood of humans; purchased Sigma-Aldrich A3782
# Experiment: Thermal denaturation of human serum albumin solution: check of precipitation during heating
# Assay type: physicochemical
# Settings: 65° C.; albumin 50 mg/mL; Examples 6.3, 6.4
# Description: Thus, the present inventors estimated oleic acid affecting stability depending on the temperature. […] Specifically, while the temperature was maintained at 65° C., 70° C. and 75° C., whether the precipitation was formed due to denaturation of protein was checked at intervals of 30 min, 5 min and 3 min, respectively.
# Thermostabilizing effects were evaluated at 70° C. using other C18 fatty acids including stearic acid, linoleic acid, α-linolenic acid and γ-linolenic acid, as well as oleic acid, in the same manner as in Example 6.1. for testing of stability against denaturation due to thermal treatment using oleic acid.
# Thermostabilizing effects at 65° C. were evaluated using C16 fatty acids including palmitic acid and palmitoleic acid, as well as oleic acid as the C18 fatty acid, in the same manner as in Examples 6.1. and 6.2. for testing of stability against degeneration due to thermal treatment using various C18 fatty acids including oleic acid. The samples were warmed to 65° C. and observed at an interval of 5 min.
# Thermostabilizing effects at 65° C. were evaluated using EPA (eicosapentaenoic acid) and DHA (docosahexanoic acid) as C20 and C22 fatty acids, as well as oleic acid as the C18 fatty acid, in the same manner as in Examples 6.1. to 6.3. for testing of stability against denaturation due to thermal treatment using various C16 and C18 fatty acids.
structure (smiles),measurement,value
"CC/C=C\C/C=C\C/C=C\C/C=C\C/C=C\CCCC(=O)O [EPA, eicosapentaenoic acid]",stability against denaturation due to thermal treatment compared to the human serum albumin control,much higher
